PubChem BioAssay AID743121, NCATS, 2013
Screen: 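Knock-downs that sensitise breast cancer cells to camptothecin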 (primary screen). System: MDA-MB-231 cells, a human breast cancer line. Reagent: single siRNA against human genes, 20 nM siRNA (0.8 pmol per well). Timing: 120 h (drug added 48 h after transfection, read 72 h later). Challenge: camptothecin 20 nM (about EC30) for 72 h; vehicle 0.1% DMSO in parallel plates. Read-out: 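Cell viability by ATP luminescence (CellTiter-Glo) as % of non-targeting siRNA wells, and the log2 ratio of viability without drug over viability with camptothecin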. Direction: log2 vehicle/camptothecin viability: higher = stronger sensitisation to camptothecin; viability with camptothecin: higher = more viable cells. Hit rule: 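Active genes have an RSA gene-level p-value below 0.001, computed from the ratios of their separate siRNAs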.
This is one part, drawn at random, of about 26,000 reagents. 167 of them (0.63%) were called active. 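Calls are per gene from RSA p-values that are not deposited; an individual active-marked siRNA can sensitise only weakly.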 Entries without a mark were called inactive. Reagents against one gene are numbered here. Further read-outs or replicates are left out here.

Against OSCAR #1, the entry reads log2 vehicle/camptothecin viability -0.291; viability with camptothecin (% of control) = 108. Against OSCAR #2 the deposit lists log2 vehicle/camptothecin viability -0.433; viability with camptothecin (% of control) = 83.1. Knock-down of OSCAR #3 gave: log2 vehicle/camptothecin viability -0.547; viability with camptothecin (% of control) = 10.3. Silencing of OSCAR #4 resulted in: log2 vehicle/camptothecin viability -0.246; viability with camptothecin (% of control) = 123. GNAZ #1 scored log2 vehicle/camptothecin viability 0.165; viability with camptothecin (% of control) = 81.6. With knock-down of GNAZ #2 the results were log2 vehicle/camptothecin viability -0.0383; viability with camptothecin (% of control) = 62.3.

With knock-down of GNAZ #3 the results were log2 vehicle/camptothecin viability -0.0801; viability with camptothecin (% of control) = 80.7. After knock-down of GNAZ #4, the record shows log2 vehicle/camptothecin viability -0.444; viability with camptothecin (% of control) = 116. Against TRPS1 #1 the deposit lists log2 vehicle/camptothecin viability -0.0544; viability with camptothecin (% of control) = 101. Knock-down of TRPS1 #2 came out at: log2 vehicle/camptothecin viability -0.0827; viability with camptothecin (% of control) = 94.4. After knock-down of TRPS1 #3, the record shows log2 vehicle/camptothecin viability -0.0163; viability with camptothecin (% of control) = 99.2. TRPS1 #4 showed log2 vehicle/camptothecin viability 0.109; viability with camptothecin (% of control) = 65.1.

Depletion of MPO #1 came out at: log2 vehicle/camptothecin viability -0.00666; viability with camptothecin (% of control) = 90. For MPO #2 the deposit lists log2 vehicle/camptothecin viability -0.662; viability with camptothecin (% of control) = 43.6. Depletion of MPO #3 came out at: log2 vehicle/camptothecin viability 0.256; viability with camptothecin (% of control) = 52.9. For MPO #4 the deposit lists log2 vehicle/camptothecin viability -0.0172; viability with camptothecin (% of control) = 91.7. Silencing of RAB33B #1 gave: log2 vehicle/camptothecin viability -0.544; viability with camptothecin (% of control) = 103. After knock-down of RAB33B #2 the results were log2 vehicle/camptothecin viability -0.0243; viability with camptothecin (% of control) = 56.4.

For RAB33B #3 the deposit lists log2 vehicle/camptothecin viability 0.102; viability with camptothecin (% of control) = 54.6. For MAS1L #1, the values are log2 vehicle/camptothecin viability -0.563; viability with camptothecin (% of control) = 85.2. After knock-down of MAS1L #2, the screen gave log2 vehicle/camptothecin viability -0.283; viability with camptothecin (% of control) = 54.8. For MAS1L #3, the values are log2 vehicle/camptothecin viability -0.155; viability with camptothecin (% of control) = 115. Against MAS1L #4, the entry reads log2 vehicle/camptothecin viability -0.0304; viability with camptothecin (% of control) = 96.4. GRINA #1 showed log2 vehicle/camptothecin viability -0.0943; viability with camptothecin (% of control) = 73.3.

GRINA #2 gave log2 vehicle/camptothecin viability -0.172; viability with camptothecin (% of control) = 59.7. After knock-down of GRINA #3, the screen gave log2 vehicle/camptothecin viability -0.593; viability with camptothecin (% of control) = 50.8. GRINA #4 scored log2 vehicle/camptothecin viability -0.529; viability with camptothecin (% of control) = 71.2. With knock-down of LOXL2 #1, the record shows log2 vehicle/camptothecin viability -0.319; viability with camptothecin (% of control) = 75.5. For LOXL2 #2 the deposit lists log2 vehicle/camptothecin viability -0.0578; viability with camptothecin (% of control) = 73.7. With knock-down of LOXL2 #3, the screen gave log2 vehicle/camptothecin viability -0.194; viability with camptothecin (% of control) = 49.3.

Depletion of LOXL2 #4 came out at: log2 vehicle/camptothecin viability -0.0776; viability with camptothecin (% of control) = 37.2. UPRT #1 scored log2 vehicle/camptothecin viability -0.207; viability with camptothecin (% of control) = 113. UPRT #2 gave log2 vehicle/camptothecin viability -0.0502; viability with camptothecin (% of control) = 78.5. Knock-down of UPRT #3 came out at: log2 vehicle/camptothecin viability -0.163; viability with camptothecin (% of control) = 85.9. Depletion of UPRT #4 resulted in: log2 vehicle/camptothecin viability 0.267; viability with camptothecin (% of control) = 67.8.

In a second layout: 4 of the entries above.
gene | siRNA no. | log2 vehicle/camptothecin viability | viability with camptothecin (% of control)
GRINA | 1 | -0.0943 | 73.3
GRINA | 2 | -0.172 | 59.7
GRINA | 3 | -0.593 | 50.8
GRINA | 4 | -0.529 | 71.2
